Experimental data reported in paper PMC10509483.

The chains behind the UniProt entries cited, without tags or fusion partners.
UniProt P63172: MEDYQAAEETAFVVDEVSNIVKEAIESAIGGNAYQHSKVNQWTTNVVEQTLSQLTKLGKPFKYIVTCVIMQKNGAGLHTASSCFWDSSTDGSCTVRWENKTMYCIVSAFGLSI
UniProt P07355: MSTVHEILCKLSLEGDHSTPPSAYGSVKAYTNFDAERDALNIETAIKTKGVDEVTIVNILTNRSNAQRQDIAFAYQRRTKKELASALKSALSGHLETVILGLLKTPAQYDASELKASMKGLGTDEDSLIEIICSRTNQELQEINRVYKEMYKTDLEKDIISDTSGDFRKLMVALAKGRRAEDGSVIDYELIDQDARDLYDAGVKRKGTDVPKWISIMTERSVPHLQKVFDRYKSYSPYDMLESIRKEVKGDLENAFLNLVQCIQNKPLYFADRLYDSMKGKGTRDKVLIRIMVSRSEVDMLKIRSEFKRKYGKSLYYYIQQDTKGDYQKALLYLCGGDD

Target: Tctex-1-GFP fusion (UniProt P63172)
Experiment: affinity purification with mass spectrometry; GFP immunoprecipitates from RPE-1 cells stably expressing Tctex-1-GFP, 2 h post-serum readdition; proteomics

binding: binds
Substance: annexin A2 isoform 2 (from UniProt P07355 1-339)

These are yes or no findings as the source states them, for the method shown. In cells and extracts the contact can be indirect. These calls come from enrichment with a bait or labelling near it, and not all partners need be listed.
